Some results were stated once for a whole list of compounds, not compound by compound. At least one compound was matched to its structure with a doubt left.
Key:
[1] = test system: Puccinia recondita; assay: In vivo preventive test on Puccinia recondita (brown rust on wheat); conditions: 500 ppm of active ingredient; wheat plants, preventive spray; evaluated 11 days after inoculation
[2] = test system: Sphaerotheca fuliginea; assay: In vivo preventive test on Sphaerotheca fuliginea (powdery mildew on cucurbits); conditions: 500 ppm of active ingredient; gherkin plants, preventive spray; evaluated 15 days after inoculation
[3] = test system: Uromyces appendiculatus; assay: In vivo preventive test on Uromyces appendiculatus (bean rust); conditions: 500 ppm of active ingredient; bean plants, preventive spray; evaluated 11 days after inoculation
[4] = test system: Pyrenophora teres; assay: In vivo preventive test on Pyrenophora teres (net blotch on barley); conditions: 500 ppm of active ingredient; barley plants, preventive spray; evaluated 14 days after inoculation; listed as 1-002

Compound	efficacy [1]	efficacy [2]	efficacy [3]	efficacy [4]
C[C@H](NC(=O)c1snc(N)c1Cl)C1CCCCC1 [I-003]	at least 70%	at least 70%	at least 70%	–
Nc1nsc(C(=O)NCC2CCCCC2)c1Cl [I-002]	–	–	–	at least 70%
